Data: article PMC10740863
Results are given in words; binding and its absence hold for the method and conditions named. Binding seen in cells or lysates may run through a third protein. Some results given as binding are weak or reduced against the parent protein; the word gives no strength. Each block holds one molecule with its values, some of them ahead of it.

Protein sequences, listed by entry. Tags and fused reporters are not part of them.
UniProt Q9Y5S8: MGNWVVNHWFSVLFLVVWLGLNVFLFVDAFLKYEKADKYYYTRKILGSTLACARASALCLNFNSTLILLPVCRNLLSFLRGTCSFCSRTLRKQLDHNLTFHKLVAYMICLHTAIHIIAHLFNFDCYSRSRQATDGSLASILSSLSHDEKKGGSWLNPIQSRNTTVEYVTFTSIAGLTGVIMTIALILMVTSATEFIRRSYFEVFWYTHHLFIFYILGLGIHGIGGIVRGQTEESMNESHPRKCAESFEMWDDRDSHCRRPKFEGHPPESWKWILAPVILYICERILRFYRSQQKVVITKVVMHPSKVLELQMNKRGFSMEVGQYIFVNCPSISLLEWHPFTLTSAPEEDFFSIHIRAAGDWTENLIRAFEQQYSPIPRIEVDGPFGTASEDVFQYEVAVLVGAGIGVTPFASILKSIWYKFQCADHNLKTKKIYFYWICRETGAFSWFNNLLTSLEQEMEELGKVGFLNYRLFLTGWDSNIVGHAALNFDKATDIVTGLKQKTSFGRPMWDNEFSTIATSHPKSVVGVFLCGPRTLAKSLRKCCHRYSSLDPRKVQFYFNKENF
UniProt Q8CIZ9: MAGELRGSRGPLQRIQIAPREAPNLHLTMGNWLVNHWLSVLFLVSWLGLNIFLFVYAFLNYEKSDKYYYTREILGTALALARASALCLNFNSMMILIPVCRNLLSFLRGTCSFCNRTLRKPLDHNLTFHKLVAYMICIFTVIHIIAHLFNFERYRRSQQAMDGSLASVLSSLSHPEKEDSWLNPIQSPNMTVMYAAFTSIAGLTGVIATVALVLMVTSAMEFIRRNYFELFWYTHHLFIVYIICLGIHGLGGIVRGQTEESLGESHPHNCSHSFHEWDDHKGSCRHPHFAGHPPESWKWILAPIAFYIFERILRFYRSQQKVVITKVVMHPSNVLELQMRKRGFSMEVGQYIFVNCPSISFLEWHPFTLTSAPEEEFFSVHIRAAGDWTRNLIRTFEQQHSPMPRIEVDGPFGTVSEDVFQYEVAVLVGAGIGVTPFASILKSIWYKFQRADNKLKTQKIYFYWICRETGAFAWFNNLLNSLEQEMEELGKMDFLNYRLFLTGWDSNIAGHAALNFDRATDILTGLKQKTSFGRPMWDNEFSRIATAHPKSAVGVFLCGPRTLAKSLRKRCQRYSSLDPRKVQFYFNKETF

Assays:
[1] = target: NOX1, human (human (endogenous in HUVEC and DLD1)) (UniProt Q9Y5S8); assay: co-IP; endogenous proteins in whole lysates of human cells (HUVEC, DLD1); NP-40 lysis buffer with protease and phosphatase inhibitors; primary antibody overnight at 4 °C, protein G magnetic beads 2 h at 4 °C, three washes; Western blot
[2] = target: T1, NOXO1, human (human (endogenous in HUVEC and DLD1)) (UniProt Q8NFA2); assay: as above
T1 sequence: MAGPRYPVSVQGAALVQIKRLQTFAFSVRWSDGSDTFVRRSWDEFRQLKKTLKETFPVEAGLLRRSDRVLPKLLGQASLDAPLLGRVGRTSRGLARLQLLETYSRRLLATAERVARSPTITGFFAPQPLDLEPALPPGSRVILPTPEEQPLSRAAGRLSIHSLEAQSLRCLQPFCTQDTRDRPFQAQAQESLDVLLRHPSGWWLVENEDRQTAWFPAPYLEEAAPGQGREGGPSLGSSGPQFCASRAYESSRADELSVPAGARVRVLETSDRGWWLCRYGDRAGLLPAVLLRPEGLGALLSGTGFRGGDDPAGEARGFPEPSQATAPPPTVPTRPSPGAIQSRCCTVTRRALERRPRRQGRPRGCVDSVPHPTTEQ

[3] = target: T2, membrane melanoma cell adhesion molecule (MCAM), human (human (endogenous in HUVEC and DLD1)) (UniProt P43121); assay: as above
T2 sequence: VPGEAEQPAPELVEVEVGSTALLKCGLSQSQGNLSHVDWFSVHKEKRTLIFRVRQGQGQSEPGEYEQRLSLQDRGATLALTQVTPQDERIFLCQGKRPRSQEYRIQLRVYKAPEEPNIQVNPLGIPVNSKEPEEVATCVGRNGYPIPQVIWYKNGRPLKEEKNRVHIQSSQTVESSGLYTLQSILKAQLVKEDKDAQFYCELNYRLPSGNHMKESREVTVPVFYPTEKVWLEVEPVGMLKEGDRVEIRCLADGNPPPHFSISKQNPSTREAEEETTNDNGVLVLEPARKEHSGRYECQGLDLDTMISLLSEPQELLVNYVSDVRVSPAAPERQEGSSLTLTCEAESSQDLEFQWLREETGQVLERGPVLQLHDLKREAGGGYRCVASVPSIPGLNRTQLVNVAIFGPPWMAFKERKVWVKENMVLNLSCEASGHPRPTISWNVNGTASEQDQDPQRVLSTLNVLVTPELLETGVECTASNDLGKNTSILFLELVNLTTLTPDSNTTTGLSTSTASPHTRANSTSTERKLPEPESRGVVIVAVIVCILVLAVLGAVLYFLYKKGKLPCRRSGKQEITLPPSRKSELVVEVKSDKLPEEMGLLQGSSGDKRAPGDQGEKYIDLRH

[4] = target: T3, membrane melanoma cell adhesion molecule (MCAM), mouse (mouse (endogenous in MC38 and B16F10)) (UniProt Q8R2Y2); assay: co-IP; endogenous proteins in whole lysates of mouse cancer cells (MC38, B16F10); NP-40 lysis buffer with protease and phosphatase inhibitors; primary antibody overnight at 4 °C, protein G magnetic beads 2 h at 4 °C, three washes; Western blot
T3 sequence: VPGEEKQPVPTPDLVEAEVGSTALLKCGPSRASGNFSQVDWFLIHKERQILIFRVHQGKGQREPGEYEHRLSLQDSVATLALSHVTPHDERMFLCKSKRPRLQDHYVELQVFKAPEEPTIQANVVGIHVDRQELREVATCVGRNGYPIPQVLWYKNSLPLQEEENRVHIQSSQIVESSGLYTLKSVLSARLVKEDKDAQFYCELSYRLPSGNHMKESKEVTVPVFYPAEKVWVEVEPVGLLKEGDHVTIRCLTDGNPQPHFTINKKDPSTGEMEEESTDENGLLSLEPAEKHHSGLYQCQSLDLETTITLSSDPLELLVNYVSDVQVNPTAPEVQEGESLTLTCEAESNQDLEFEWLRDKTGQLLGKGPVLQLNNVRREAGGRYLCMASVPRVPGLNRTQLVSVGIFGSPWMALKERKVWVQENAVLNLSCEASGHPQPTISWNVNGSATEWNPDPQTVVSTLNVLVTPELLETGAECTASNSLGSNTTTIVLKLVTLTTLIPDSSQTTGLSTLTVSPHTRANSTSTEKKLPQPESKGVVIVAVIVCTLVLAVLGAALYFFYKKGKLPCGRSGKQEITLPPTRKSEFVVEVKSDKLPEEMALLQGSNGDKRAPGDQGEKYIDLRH

[5] = target: NOX1, mouse (mouse (endogenous in MC38 and B16F10)) (UniProt Q8CIZ9); assay: as above

Molecule: membrane melanoma cell adhesion molecule (MCAM), human (from UniProt P43121 24-646)
binding [1]: binds | binding [2]: binds

B1: membrane melanoma cell adhesion molecule (MCAM), mouse (protein, UniProt Q8R2Y2 24-648)
chain: T3 sequence
binding [5]: binds

Results, then the molecule that gave them:

binding [2]: binds | binding [3]: binds
Molecule: NOX1, human (from UniProt Q9Y5S8 1-564) (enzyme)

binding [4]: binds
Molecule: NOX1, mouse (from UniProt Q8CIZ9 1-591) (enzyme)
